From the supplement of paper PMC12067093, “Discovery and optimisation of a covalent ligand for TRIM25 and its application to targeted protein ubiquitination” (Chemical Science, 2025)
Some of the results follow.

Protein sequences, listed by entry. Tags and fused reporters are not part of them. Lines headed by an entry give the natural chain unless they say otherwise; changes in a name come on top.
UniProt Q99832: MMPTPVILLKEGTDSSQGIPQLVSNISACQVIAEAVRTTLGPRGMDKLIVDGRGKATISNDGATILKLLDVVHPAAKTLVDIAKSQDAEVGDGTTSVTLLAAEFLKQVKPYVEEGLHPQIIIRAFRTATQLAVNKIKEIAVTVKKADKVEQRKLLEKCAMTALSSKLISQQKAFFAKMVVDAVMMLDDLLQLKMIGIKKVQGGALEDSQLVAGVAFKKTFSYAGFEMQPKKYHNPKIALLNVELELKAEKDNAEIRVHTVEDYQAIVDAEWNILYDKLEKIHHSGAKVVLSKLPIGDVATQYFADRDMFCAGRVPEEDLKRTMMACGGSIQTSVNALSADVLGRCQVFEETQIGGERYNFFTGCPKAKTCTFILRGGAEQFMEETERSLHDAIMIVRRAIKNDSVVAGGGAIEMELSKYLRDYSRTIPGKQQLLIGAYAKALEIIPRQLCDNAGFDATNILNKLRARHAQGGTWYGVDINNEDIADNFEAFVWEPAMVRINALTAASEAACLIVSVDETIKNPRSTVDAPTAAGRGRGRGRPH
UniProt Q96G28: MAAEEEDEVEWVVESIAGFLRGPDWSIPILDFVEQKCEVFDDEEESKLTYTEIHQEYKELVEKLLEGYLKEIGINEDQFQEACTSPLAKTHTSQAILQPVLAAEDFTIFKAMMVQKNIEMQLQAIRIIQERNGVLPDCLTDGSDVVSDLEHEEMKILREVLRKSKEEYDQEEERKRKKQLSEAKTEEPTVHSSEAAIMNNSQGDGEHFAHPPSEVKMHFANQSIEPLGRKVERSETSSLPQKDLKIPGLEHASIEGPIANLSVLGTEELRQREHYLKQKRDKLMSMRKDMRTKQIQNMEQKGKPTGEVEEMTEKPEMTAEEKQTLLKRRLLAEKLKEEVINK
UniProt P30260, whole entry, looked up: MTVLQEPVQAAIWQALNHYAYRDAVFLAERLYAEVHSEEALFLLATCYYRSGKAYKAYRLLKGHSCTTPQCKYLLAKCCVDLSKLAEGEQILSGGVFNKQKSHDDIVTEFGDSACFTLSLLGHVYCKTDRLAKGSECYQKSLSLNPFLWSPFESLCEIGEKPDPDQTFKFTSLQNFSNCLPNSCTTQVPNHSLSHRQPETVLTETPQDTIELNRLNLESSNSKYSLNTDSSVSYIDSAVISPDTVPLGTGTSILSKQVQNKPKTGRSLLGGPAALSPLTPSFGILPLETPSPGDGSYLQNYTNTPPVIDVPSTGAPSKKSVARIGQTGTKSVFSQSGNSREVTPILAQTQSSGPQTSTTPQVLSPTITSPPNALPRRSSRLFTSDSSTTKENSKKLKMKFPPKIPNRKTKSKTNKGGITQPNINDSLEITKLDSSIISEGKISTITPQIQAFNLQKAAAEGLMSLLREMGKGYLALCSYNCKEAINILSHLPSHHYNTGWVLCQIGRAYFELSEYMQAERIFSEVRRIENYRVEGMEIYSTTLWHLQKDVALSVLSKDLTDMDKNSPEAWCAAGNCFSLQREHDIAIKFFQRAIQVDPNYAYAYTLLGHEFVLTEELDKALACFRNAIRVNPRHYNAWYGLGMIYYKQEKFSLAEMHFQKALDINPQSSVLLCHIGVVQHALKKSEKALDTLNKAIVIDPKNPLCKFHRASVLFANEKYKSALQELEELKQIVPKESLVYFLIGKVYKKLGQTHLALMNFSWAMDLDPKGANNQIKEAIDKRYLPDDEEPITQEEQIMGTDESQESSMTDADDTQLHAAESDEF
UniProt Q12834, whole entry, looked up: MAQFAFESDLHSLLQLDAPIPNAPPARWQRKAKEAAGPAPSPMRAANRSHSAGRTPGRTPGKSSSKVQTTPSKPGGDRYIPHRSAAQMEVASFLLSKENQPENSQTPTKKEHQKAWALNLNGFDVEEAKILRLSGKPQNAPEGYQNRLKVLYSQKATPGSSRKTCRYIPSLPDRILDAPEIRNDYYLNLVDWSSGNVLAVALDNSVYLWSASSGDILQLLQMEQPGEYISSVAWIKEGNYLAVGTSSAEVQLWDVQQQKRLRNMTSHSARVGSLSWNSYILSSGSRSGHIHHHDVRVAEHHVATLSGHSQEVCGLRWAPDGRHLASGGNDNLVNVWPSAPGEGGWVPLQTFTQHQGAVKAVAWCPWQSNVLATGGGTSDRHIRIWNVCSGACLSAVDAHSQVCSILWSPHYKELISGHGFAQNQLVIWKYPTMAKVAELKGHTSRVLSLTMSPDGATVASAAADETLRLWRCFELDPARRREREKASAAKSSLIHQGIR
UniProt Q8TAP6: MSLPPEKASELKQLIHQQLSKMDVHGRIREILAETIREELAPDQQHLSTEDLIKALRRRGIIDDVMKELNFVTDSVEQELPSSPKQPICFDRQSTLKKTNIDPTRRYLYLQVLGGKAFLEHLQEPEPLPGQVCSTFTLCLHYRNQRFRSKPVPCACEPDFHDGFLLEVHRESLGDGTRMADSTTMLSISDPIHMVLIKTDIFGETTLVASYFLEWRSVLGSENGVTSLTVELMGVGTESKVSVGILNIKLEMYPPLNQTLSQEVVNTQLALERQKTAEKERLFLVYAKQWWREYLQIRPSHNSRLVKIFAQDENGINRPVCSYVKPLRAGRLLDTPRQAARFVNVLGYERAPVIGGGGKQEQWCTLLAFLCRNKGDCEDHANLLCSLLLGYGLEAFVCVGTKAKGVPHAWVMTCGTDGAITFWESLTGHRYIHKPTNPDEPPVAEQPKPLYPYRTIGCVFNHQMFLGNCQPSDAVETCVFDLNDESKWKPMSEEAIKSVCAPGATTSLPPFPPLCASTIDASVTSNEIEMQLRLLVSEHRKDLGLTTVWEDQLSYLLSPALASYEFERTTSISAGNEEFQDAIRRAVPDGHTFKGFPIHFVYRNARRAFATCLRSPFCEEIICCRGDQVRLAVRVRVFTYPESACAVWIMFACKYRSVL
UniProt Q9UJX2, whole entry, looked up: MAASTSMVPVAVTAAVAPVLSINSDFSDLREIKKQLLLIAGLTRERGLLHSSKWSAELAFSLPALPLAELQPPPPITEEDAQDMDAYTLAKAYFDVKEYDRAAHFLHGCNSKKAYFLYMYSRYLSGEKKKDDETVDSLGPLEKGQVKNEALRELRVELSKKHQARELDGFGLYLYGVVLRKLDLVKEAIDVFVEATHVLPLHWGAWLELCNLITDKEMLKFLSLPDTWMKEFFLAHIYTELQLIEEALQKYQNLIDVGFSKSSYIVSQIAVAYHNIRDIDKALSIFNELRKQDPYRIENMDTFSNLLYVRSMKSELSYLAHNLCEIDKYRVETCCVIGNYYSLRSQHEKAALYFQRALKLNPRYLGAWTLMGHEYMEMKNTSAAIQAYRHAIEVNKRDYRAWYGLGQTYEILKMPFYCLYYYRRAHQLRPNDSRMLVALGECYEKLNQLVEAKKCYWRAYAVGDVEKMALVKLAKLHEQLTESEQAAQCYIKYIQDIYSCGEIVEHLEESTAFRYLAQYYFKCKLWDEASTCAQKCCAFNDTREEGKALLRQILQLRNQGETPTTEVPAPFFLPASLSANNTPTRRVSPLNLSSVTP
UniProt Q6P2H3: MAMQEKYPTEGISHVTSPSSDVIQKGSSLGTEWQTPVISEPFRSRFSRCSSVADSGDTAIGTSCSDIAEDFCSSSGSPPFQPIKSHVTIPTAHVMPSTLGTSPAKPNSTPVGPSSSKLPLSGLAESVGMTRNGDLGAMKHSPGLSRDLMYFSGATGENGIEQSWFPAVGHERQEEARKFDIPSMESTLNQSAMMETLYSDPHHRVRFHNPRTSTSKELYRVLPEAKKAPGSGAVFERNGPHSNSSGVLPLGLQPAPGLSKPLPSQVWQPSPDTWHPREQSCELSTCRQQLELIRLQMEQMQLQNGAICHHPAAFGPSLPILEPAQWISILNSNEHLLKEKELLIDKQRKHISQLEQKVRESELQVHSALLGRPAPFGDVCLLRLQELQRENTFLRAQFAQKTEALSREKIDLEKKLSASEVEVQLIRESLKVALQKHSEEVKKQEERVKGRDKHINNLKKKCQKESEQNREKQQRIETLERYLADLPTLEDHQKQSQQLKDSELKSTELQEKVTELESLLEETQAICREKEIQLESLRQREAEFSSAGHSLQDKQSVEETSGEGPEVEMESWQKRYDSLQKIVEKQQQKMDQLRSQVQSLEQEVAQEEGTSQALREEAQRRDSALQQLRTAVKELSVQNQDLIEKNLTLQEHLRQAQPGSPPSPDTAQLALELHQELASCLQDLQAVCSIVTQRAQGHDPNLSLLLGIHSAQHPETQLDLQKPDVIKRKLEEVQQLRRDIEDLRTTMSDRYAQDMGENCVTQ
UniProt Q8IWY9: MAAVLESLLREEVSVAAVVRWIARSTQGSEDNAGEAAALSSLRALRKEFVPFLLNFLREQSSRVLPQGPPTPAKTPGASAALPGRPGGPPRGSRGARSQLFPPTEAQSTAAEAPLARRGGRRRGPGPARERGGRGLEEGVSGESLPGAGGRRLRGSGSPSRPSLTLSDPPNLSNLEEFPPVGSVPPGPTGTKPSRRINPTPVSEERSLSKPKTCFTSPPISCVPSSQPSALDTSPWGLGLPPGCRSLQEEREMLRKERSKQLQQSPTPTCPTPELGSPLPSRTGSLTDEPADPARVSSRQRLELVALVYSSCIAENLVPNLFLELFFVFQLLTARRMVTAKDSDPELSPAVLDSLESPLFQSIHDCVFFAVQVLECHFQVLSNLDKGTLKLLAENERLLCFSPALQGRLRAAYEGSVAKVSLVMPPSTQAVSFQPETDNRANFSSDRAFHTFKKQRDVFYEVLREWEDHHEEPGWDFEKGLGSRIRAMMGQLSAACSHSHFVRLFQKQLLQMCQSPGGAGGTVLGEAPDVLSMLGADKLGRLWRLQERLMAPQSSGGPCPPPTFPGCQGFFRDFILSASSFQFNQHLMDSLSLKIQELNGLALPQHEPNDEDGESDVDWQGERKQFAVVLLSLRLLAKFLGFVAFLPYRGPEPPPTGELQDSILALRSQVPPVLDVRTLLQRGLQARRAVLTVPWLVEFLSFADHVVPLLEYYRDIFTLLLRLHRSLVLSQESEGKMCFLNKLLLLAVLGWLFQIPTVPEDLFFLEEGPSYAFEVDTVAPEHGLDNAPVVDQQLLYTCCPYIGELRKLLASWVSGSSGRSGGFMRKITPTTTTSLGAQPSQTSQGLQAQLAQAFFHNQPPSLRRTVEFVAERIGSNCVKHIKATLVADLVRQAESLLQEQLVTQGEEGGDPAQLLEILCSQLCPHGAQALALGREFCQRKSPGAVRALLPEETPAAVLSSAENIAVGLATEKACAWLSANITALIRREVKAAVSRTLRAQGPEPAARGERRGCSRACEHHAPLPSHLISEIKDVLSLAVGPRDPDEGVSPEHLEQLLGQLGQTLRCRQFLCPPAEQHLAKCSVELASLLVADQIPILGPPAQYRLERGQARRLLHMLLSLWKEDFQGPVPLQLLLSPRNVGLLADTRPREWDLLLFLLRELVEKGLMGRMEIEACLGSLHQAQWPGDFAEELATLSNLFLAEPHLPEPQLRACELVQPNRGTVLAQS
UniProt Q69YH5: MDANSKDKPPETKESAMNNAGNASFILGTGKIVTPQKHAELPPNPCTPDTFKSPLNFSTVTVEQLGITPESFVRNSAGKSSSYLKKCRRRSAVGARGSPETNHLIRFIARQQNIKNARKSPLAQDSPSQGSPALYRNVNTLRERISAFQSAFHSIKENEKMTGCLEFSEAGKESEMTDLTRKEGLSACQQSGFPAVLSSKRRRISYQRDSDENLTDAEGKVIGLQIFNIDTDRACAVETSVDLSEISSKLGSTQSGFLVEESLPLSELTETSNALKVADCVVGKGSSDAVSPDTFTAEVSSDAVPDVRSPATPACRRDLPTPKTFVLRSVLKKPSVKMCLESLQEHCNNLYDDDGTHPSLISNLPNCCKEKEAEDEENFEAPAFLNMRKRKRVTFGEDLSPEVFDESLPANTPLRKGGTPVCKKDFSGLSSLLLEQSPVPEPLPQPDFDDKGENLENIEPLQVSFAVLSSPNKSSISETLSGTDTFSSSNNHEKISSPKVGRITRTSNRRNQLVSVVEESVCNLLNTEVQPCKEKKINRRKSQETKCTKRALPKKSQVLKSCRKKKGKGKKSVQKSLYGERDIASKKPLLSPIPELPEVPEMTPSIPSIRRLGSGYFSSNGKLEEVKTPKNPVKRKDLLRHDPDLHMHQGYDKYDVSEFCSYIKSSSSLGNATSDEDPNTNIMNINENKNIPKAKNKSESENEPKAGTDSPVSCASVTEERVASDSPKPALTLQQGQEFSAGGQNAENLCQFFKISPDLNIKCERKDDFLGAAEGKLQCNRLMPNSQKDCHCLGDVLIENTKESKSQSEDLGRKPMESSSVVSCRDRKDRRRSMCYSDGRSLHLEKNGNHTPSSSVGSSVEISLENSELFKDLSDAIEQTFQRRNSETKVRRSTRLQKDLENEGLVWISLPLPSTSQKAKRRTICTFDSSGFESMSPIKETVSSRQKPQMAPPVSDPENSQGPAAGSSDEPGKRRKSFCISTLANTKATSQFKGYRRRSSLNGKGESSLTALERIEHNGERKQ

Compound: Cc1cc(ccc1-c1ccccc1)C(=O)N1CCCN(CC1)C(=O)CCl [compound 10]
Experiment: probe-labelled cysteine peptide fold change vs DMSO (competition) (log2 fold change); higher = less target engagement (more negative = stronger competition)
Settings: THP-1, incubation time: 4 h
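Also: competitive profiling in live THP-1 cells: cysteine peptides tagged with an iodoacetamide desthiobiotin (IA-DTB) probe, intensity after compound treatment relative to DMSO-treated cells.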

CCT7_Q99832_310_DMFCAGR (UniProt Q99832)
probe-labelled cysteine peptide fold change (10 µM): 0.0172 | probe-labelled cysteine peptide fold change (50 µM): 0.102

CFAP36_Q96G28_138_NGVLPDCLTDGSDVVSDLEHEEMK (UniProt Q96G28)
probe-labelled cysteine peptide fold change (10 µM): -0.129 | probe-labelled cysteine peptide fold change (50 µM): -0.254

CDC27_P30260_179+184_FTSLQNFSNCLPNSCTTQVPNHSLSHR (UniProt P30260)
probe-labelled cysteine peptide fold change (10 µM): -0.0748 | probe-labelled cysteine peptide fold change (50 µM): -0.468

CDC20_Q12834_472_CFELDPAR (UniProt Q12834)
probe-labelled cysteine peptide fold change (10 µM): 0.0942 | probe-labelled cysteine peptide fold change (50 µM): -0.00193

CEP76_Q8TAP6_414_GVPHAWVMTCGTDGAITFWESLTGHR (UniProt Q8TAP6)
probe-labelled cysteine peptide fold change (10 µM): 0.187 | probe-labelled cysteine peptide fold change (50 µM): 0.262

CDC23_Q9UJX2_532_LWDEASTCAQK (UniProt Q9UJX2)
probe-labelled cysteine peptide fold change (10 µM): -0.064 | probe-labelled cysteine peptide fold change (50 µM): -0.308

CFAP20_Q9Y6A4_61_RITDNDIQSLVLEIEGTNVSTTYITCPADPKK (UniProt Q9Y6A4)
probe-labelled cysteine peptide fold change (10 µM): 0.115 | probe-labelled cysteine peptide fold change (50 µM): 0.0876

CEP85_Q6P2H3_380_PAPFGDVCLLR (UniProt Q6P2H3)
probe-labelled cysteine peptide fold change (10 µM): -0.0545 | probe-labelled cysteine peptide fold change (50 µM): -0.383

CDC27_P30260_673_ALDINPQSSVLLCHIGVVQHALKK (UniProt P30260)
probe-labelled cysteine peptide fold change (10 µM): 0.142 | probe-labelled cysteine peptide fold change (50 µM): -0.243

CDAN1_Q8IWY9_400_LLCFSPALQGR (UniProt Q8IWY9)
probe-labelled cysteine peptide fold change (10 µM): 0.131 | probe-labelled cysteine peptide fold change (50 µM): 0.0957

CCT8_P50990_136_IGLSVSEVIEGYEIACR (UniProt P50990)
probe-labelled cysteine peptide fold change (10 µM): 0.491 | probe-labelled cysteine peptide fold change (50 µM): 0.391

CDCA2_Q69YH5_792_DCHCLGDVLIENTK (UniProt Q69YH5)
probe-labelled cysteine peptide fold change (10 µM): -0.367 | probe-labelled cysteine peptide fold change (50 µM): -0.891

CD2BP2_O95400_234_GLGCQTLGPHNPTPPPSLDMFAEELAEEELETPTPTQR (UniProt O95400)
probe-labelled cysteine peptide fold change (10 µM): -0.0376 | probe-labelled cysteine peptide fold change (50 µM): -0.382
